Results: the supplement of paper PMC10849652
The list shows a part of the results.

Amino acid sequences for entries named in this document (tags omitted). A change or cut given only in a name is not applied to a line headed by its entry.
UniProt Q6P1X6: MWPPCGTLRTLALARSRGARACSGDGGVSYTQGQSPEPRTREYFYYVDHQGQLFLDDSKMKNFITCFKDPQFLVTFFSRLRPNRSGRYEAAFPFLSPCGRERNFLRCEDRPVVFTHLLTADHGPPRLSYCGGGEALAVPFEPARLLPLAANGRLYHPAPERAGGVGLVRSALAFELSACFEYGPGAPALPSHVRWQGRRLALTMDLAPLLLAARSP
UniProt Q9NX04: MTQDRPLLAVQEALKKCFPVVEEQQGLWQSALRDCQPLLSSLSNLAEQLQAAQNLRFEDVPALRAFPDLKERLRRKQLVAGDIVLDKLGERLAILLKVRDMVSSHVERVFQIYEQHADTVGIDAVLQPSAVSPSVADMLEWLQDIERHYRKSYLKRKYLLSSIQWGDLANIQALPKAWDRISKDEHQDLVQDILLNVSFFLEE
UniProt Q9BXL7: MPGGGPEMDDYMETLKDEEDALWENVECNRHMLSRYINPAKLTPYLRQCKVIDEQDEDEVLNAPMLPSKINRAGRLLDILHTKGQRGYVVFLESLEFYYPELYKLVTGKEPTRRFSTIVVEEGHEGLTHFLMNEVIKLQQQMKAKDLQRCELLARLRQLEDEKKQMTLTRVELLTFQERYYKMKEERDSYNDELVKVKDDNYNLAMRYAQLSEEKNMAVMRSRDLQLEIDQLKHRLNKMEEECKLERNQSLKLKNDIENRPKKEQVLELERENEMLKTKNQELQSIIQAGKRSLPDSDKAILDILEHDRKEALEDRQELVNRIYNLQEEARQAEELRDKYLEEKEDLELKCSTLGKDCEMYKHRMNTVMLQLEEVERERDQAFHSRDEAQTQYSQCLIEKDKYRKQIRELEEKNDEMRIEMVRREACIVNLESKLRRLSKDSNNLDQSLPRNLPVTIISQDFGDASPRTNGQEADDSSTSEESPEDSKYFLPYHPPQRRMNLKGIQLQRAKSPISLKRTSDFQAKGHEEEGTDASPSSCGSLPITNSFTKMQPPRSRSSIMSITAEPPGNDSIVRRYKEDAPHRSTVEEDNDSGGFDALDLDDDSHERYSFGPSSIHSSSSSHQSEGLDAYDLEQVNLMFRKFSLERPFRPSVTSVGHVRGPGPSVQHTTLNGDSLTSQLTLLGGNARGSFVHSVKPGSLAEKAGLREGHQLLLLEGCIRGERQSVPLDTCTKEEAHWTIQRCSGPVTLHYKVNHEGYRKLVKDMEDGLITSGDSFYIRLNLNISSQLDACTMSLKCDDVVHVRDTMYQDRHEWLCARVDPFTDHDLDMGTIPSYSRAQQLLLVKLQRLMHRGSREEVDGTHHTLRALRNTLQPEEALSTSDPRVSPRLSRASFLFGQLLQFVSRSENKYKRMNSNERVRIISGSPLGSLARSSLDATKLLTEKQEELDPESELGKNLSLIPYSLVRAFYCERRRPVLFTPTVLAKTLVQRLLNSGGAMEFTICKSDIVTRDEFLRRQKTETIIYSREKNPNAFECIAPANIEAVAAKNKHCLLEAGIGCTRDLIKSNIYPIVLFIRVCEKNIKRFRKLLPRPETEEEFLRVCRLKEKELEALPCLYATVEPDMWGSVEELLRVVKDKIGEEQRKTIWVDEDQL
UniProt Q9Y2V2: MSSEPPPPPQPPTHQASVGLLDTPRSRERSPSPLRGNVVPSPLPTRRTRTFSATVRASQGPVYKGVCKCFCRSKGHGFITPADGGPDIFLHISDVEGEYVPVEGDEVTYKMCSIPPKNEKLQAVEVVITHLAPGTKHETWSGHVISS
UniProt Q5T6V5: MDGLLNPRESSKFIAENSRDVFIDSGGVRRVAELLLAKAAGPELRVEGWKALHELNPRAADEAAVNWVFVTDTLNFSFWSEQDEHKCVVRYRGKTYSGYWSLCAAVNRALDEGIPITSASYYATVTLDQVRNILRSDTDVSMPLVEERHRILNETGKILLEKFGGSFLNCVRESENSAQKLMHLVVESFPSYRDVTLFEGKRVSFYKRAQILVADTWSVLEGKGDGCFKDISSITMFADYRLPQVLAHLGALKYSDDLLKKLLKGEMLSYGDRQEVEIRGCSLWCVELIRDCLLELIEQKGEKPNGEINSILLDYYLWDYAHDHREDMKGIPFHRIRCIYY
UniProt Q9Y6E2: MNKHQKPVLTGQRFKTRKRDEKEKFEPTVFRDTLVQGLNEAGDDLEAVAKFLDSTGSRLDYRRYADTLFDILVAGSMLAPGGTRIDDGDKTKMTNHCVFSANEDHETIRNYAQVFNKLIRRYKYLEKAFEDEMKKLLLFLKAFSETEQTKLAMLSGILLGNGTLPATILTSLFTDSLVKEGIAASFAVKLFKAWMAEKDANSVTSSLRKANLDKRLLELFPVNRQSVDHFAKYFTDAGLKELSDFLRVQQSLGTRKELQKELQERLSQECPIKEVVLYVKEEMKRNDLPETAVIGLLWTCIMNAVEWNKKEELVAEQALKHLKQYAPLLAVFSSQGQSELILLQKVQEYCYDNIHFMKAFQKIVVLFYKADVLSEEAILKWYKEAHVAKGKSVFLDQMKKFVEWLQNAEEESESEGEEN
UniProt Q13895: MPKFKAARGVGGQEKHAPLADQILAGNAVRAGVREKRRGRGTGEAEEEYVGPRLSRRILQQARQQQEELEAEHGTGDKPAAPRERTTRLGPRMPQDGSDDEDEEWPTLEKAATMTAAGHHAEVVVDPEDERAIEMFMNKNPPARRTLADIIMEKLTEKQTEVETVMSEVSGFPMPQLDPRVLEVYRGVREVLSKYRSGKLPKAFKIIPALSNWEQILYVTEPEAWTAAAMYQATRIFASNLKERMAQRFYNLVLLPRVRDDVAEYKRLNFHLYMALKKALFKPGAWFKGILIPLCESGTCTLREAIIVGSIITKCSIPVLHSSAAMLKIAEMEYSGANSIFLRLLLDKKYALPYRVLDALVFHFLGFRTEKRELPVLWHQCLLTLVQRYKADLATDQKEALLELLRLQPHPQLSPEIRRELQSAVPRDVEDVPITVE
UniProt P01031, whole entry, looked up: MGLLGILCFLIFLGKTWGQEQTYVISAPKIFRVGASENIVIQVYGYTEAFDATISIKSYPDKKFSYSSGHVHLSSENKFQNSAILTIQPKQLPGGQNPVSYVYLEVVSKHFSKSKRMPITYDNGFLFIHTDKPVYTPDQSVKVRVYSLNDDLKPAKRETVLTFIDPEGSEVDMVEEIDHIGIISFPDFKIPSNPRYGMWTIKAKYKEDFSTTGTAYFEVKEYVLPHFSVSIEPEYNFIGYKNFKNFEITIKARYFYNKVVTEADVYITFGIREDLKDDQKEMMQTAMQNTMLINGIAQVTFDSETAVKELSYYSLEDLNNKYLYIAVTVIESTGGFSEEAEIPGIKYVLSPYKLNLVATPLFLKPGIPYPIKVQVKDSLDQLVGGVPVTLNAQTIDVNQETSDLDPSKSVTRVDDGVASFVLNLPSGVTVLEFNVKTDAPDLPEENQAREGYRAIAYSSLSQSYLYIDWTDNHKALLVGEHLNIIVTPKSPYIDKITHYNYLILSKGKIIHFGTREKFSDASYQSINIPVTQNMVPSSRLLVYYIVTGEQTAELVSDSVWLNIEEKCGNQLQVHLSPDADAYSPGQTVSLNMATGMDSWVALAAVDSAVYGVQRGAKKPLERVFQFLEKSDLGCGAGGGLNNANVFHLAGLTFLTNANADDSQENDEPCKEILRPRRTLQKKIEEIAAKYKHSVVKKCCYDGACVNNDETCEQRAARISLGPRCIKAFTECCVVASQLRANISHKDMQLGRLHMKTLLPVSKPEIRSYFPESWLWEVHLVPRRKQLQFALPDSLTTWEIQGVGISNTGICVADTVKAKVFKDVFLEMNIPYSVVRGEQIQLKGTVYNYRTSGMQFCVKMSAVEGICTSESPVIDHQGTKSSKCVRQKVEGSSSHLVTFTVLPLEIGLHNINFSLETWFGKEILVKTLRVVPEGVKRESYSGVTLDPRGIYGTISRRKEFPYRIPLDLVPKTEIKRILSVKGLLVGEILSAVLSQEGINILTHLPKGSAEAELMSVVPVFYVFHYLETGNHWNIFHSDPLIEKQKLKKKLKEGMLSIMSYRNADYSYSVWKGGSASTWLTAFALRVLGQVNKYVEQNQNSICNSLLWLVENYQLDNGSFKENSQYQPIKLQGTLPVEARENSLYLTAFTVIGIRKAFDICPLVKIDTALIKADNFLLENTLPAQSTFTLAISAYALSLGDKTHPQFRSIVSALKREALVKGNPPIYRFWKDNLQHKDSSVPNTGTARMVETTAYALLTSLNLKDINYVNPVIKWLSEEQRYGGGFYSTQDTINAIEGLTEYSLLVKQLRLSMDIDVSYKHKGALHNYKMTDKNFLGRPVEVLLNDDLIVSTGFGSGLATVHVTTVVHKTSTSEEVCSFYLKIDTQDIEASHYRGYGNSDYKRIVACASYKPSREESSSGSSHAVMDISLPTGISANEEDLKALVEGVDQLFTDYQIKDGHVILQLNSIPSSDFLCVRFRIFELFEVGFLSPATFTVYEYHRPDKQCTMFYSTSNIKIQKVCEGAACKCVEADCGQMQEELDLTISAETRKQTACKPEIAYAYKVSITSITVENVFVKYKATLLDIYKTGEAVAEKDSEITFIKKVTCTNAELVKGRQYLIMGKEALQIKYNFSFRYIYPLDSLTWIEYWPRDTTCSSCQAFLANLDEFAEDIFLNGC
UniProt O14981: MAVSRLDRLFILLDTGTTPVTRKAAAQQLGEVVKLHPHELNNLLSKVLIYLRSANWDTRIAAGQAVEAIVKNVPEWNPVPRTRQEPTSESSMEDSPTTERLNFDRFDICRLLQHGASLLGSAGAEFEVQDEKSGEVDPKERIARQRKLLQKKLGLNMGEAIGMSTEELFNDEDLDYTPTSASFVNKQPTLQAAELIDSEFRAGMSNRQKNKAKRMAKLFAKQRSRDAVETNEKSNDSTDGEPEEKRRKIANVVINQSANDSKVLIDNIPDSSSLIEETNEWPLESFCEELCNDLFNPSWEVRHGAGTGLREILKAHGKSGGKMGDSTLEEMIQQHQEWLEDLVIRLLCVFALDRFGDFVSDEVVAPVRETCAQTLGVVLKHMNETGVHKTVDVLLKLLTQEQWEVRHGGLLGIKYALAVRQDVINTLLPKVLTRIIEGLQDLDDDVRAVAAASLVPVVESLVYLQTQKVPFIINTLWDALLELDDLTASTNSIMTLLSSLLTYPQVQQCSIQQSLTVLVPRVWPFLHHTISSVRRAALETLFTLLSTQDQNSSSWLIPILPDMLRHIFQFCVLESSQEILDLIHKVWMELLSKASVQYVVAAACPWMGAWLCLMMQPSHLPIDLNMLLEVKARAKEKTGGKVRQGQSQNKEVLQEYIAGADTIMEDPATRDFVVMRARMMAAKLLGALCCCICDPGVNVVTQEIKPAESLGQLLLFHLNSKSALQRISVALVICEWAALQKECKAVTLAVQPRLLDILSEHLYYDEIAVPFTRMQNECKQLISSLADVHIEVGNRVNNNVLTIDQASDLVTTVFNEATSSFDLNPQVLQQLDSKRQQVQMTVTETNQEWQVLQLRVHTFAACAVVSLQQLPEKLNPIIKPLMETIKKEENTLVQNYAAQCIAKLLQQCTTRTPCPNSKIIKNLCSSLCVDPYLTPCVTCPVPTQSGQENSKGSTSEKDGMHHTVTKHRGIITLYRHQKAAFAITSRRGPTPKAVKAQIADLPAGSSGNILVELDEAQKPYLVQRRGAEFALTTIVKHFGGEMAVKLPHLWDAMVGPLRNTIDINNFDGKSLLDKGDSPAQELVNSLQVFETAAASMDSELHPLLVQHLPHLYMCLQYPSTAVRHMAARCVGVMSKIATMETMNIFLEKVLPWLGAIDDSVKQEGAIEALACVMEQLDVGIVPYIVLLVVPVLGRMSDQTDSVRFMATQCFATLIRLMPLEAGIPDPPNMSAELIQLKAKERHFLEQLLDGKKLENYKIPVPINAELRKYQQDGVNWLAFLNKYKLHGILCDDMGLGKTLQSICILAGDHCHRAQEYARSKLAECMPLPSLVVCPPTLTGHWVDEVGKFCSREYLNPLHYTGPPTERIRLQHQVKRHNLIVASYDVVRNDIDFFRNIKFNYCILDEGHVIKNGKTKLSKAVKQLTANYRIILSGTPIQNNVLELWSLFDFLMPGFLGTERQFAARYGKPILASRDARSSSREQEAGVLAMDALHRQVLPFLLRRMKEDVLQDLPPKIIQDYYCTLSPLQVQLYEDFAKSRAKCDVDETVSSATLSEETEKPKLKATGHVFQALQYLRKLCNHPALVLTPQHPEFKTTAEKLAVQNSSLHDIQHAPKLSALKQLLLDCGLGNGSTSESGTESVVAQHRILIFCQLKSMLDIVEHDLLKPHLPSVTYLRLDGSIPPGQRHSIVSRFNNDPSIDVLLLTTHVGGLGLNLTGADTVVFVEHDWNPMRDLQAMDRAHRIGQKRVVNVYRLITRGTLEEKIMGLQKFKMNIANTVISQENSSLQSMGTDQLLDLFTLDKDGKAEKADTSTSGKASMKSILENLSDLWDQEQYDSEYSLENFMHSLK

How the values were obtained:
Experiment in all cases: log2 fold change, soluble protein after heating vs DMSO (PISA); higher = thermal stabilisation; K562 cells, 10 uM, 30 min; active = over 0.2 and 3.5 SD of the protein, either way, in both replicates (recomputed)
[1] = compound: CS(=O)(=O)c1ccc(-c2cnc(N)c(C(=O)Nc3ccccc3)n2)cc1
How it was run: (§1)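 K562 cells (2×10^6 cells/mL) were treated with 10 μM compound for 30 min, and aliquots were heated for 3 min over 48°C-58°C. Pooled aliquots were extracted in PBS with 0.5% NP-40 at 4°C, and the supernatant after 21,000xg for 90 min was measured by TMTpro 16plex LC-MS/MS with channel sums equalised. Reported thermal stability, relative to control samples and from duplicates, is a log2 fold change.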

crizotinib = compound: C[C@@H](Oc1cc(-c2cnn(C3CCNCC3)c2)cnc1N)c1c(Cl)ccc(F)c1Cl [crizotinib]
How it was run: as §1

[2] = compound: C[C@@H]1COCCN1C2=NC(=NC(=C2)C3(CC3)S(=O)(=O)C)C4=C5C=CNC5=CC=C4
How it was run: as §1

[3] = compound: C[C@H](C1=CC=C(C=C1)C(=O)NC2=C3C=CNC3=NC=C2)N
How it was run: as §1

duvelisib = compound: C[C@H](Nc1ncnc2nc[nH]c12)c1cc2cccc(Cl)c2c(=O)n1-c1ccccc1 [duvelisib]
How it was run: as §1

gandotinib = compound: Cc1cc(Nc2cc(CN3CCOCC3)c3nc(C)c(Cc4ccc(Cl)cc4F)n3n2)n[nH]1 [gandotinib]
How it was run: as §1

tozasertib = compound: Cc1cc(Nc2cc(N3CCN(C)CC3)nc(Sc3ccc(NC(=O)C4CC4)cc3)n2)n[nH]1 [tozasertib]
How it was run: as §1

[4] = compound: Cc1cc(SCc2sc(-c3ccc(C(F)(F)F)cc3)nc2C)ccc1OCC(=O)O
How it was run: as §1

doramapimod = compound: Cc1ccc(-n2nc(C(C)(C)C)cc2NC(=O)Nc2ccc(OCCN3CCOCC3)c3ccccc23)cc1 [doramapimod]
How it was run: as §1

ispinesib = compound: Cc1ccc(C(=O)N(CCCN)[C@@H](c2nc3cc(Cl)ccc3c(=O)n2Cc2ccccc2)C(C)C)cc1 [ispinesib]
How it was run: as §1

Measured: log2 fold change

C17orf80 (UniProt Q9BSJ5)
inactive: [1] -0.08 | crizotinib -0.049 | [2] -0.129 | [3] -0.004 | duvelisib -0.025 | gandotinib 0.072 | tozasertib -0.083 | [4] 0.015 | doramapimod 0.005 | ispinesib 0.005

C6orf89 isoform 2 (UniProt Q6UWU4)
inactive: [1] -0.042 | crizotinib 0.084 | [2] 0.07 | [3] -0.036 | duvelisib 0.09 | gandotinib 0.032 | tozasertib -0.013 | [4] -0.043 | doramapimod -0.033 | ispinesib -0.02

C8orf82 (UniProt Q6P1X6)
inactive: [1] 0.034 | crizotinib 0.083 | [2] 0.001 | [3] -0.076 | duvelisib -0.031 | gandotinib 0.004 | tozasertib 0.007 | [4] 0.017 | doramapimod -0.107 | ispinesib 0.03

Taken from the entries so far (2 entries):
C6orf89 isoform 2 (UniProt Q6UWU4)
inactive: [1] -0.042 | crizotinib 0.084 | [2] 0.07 | [3] -0.036 | duvelisib 0.09 | gandotinib 0.032 | tozasertib -0.013 | [4] -0.043 | doramapimod -0.033 | ispinesib -0.02

C8orf82 (UniProt Q6P1X6)
inactive: [1] 0.034 | crizotinib 0.083 | [2] 0.001 | [3] -0.076 | duvelisib -0.031 | gandotinib 0.004 | tozasertib 0.007 | [4] 0.017 | doramapimod -0.107 | ispinesib 0.03

Following part.

C1orf109 (UniProt Q9NX04)
inactive: [1] -0.173 | crizotinib 0.072 | [2] -0.188 | [3] -0.003 | duvelisib 0.073 | gandotinib -0.075 | tozasertib -0.009 | [4] 0.002 | doramapimod -0.038 | ispinesib -0.009

CARD11 (UniProt Q9BXL7)
inactive: [1] 0.066 | crizotinib -0.104 | [2] 0.028 | [3] 0.162 | duvelisib 0.042 | [4] 0.139 | doramapimod 0.009

BUB1 (UniProt O43683)
inactive: [1] 0.008 | crizotinib -0.196 | [2] 0.098 | [3] 0.163 | duvelisib 0.157 | gandotinib -0.107 | tozasertib -0.107 | [4] -0.047 | doramapimod 0.082 | ispinesib -0.218

CACYBP (UniProt Q9HB71)
inactive: [1] 0.034 | crizotinib 0.008 | [2] 0.042 | [3] -0.06 | duvelisib 0.009 | gandotinib -0.078 | tozasertib 0.002 | [4] 0.01 | doramapimod -0.035 | ispinesib 0.062

CARHSP1 (UniProt Q9Y2V2)
inactive: [1] 0.07 | crizotinib 0.022 | [2] -0.026 | [3] -0.05 | duvelisib 0.023 | gandotinib -0.087 | tozasertib 0.029 | [4] -0.007 | doramapimod -0.026 | ispinesib 0.092

CAAP1 (UniProt Q9H8G2)
inactive: [1] 0.059 | crizotinib -0.015 | [2] -0.064 | [3] -0.09 | duvelisib -0.083 | tozasertib 0.011 | [4] -0.123 | doramapimod -0.006 | ispinesib -0.073

C3orf38 (UniProt Q5JPI3)
inactive: [1] -0.13 | crizotinib -0.027 | [2] -0.075 | [3] 0.001 | duvelisib -0.041 | tozasertib -0.015 | [4] 0.159 | doramapimod 0.015 | ispinesib -0.08

C16orf58 (UniProt Q96GQ5)
inactive: [1] 0.011 | crizotinib -0.057 | [2] 0.126 | [3] 0 | gandotinib -0.08 | [4] -0.035 | doramapimod 0.006
active: ispinesib -0.309

CA13 (UniProt Q8N1Q1)
inactive: [1] -0.06 | crizotinib 0.05 | [2] 0.014 | [3] -0.129 | duvelisib 0.116 | gandotinib -0.035 | tozasertib 0.063 | [4] 0.007 | doramapimod -0.056 | ispinesib 0.13

C9orf64 (UniProt Q5T6V5)
inactive: [1] 0.049 | crizotinib -0.329 | [2] 0.091 | [3] 0 | gandotinib -0.128 | [4] 0.097 | doramapimod -0.005 | ispinesib -0.207

CAD (UniProt P27708)
active: crizotinib -0.271
inactive: [1] 0.014 | [2] 0 | [3] 0.033 | gandotinib -0.013 | [4] 0.053 | doramapimod -0.028 | ispinesib -0.106

CAMK2G isoform 6 (UniProt Q13555)
inactive: [1] -0.02 | crizotinib -0.146 | [2] -0.064 | [3] -0.116 | gandotinib -0.041 | [4] -0.004 | doramapimod 0.073 | ispinesib 0

C4orf33 (UniProt Q8N1A6)
inactive: [1] 0.025 | crizotinib -0.098 | [2] 0.001 | [3] -0.209 | gandotinib 0.019 | [4] 0.005 | doramapimod -0.003 | ispinesib -0.038

BST2 (UniProt Q10589)
inactive: [1] -0.023 | crizotinib 0.066 | [2] 0.006 | [3] -0.055 | gandotinib -0.016 | [4] -0.074 | doramapimod 0.023 | ispinesib -0.078

C1orf167 isoform 2 (UniProt Q5SNV9)
inactive: [1] -0.034 | crizotinib -0.029 | [2] -0.006 | [3] 0.509 | duvelisib 0.062 | [4] 0.046 | doramapimod -0.012

C15orf41 (UniProt Q9Y2V0)
inactive: [1] 0.057 | crizotinib -0.01 | [2] 0.074 | [3] 0.023 | gandotinib -0.027 | [4] -0.004 | doramapimod 0.08 | ispinesib -0.2

BZW2 (UniProt Q9Y6E2)
inactive: [1] 0.006 | crizotinib -0.146 | [2] 0.096 | [3] -0.037 | gandotinib -0.218 | [4] 0.047 | doramapimod -0.047 | ispinesib -0.072

CALCOCO2 isoform 4 (UniProt Q13137)
active: crizotinib -0.355
inactive: [1] 0.026 | [2] -0.106 | [3] 0.024 | gandotinib 0.071 | [4] -0.037 | doramapimod -0.002 | ispinesib -0.262

BYSL (UniProt Q13895)
inactive: [1] -0.003 | crizotinib -0.049 | [2] 0 | [3] 0.05 | gandotinib -0.012 | [4] 0.135 | doramapimod 0.037 | ispinesib -0.094

BTD isoform 3 (UniProt P43251)
inactive: [1] -0.028 | crizotinib -0.013 | [2] 0.066 | [3] -0.156 | duvelisib -0.011 | tozasertib -0.033 | [4] -0.018 | doramapimod 0.105 | ispinesib 0.002

C5 (UniProt P01031)
inactive: [1] -0.096 | crizotinib -0.248 | [2] 0.248 | [3] 0.444 | gandotinib 0.008 | tozasertib -0.056 | doramapimod 0.132

CALU isoform 4 (UniProt O43852)
inactive: [1] 0.009 | crizotinib 0.111 | [2] 0.056 | [3] -0.031 | duvelisib 0.046 | gandotinib -0.055 | tozasertib -0.016 | [4] -0.031 | doramapimod -0.022 | ispinesib 0.04

C3orf33 (UniProt Q6P1S2)
inactive: [1] -0.04 | crizotinib 0.042 | [2] 0.059 | [3] 0.05 | duvelisib 0.028 | gandotinib 0 | tozasertib -0.018 | [4] 0.031 | doramapimod -0.009 | ispinesib -0.19

BTAF1 (UniProt O14981)
inactive: [1] 0.055 | crizotinib -0.076 | [2] 0.094 | [3] 0.041 | gandotinib -0.05 | [4] 0.044 | doramapimod 0.006 | ispinesib 0.016
